Data reported in publication doi:10.1101/2023.03.23.533910 (bioRxiv, 2023).
No constants are given. Whether binding was seen depends on the method and setting. In cells and extracts the contact can be indirect. A result given as binding can be weak or reduced; the word gives no strength. Where a sequence is shown, tags or fusion partners need not be part of it.

T1: SNC1-GFP (Arabidopsis thaliana) (UniProt O23530)
T1 sequence: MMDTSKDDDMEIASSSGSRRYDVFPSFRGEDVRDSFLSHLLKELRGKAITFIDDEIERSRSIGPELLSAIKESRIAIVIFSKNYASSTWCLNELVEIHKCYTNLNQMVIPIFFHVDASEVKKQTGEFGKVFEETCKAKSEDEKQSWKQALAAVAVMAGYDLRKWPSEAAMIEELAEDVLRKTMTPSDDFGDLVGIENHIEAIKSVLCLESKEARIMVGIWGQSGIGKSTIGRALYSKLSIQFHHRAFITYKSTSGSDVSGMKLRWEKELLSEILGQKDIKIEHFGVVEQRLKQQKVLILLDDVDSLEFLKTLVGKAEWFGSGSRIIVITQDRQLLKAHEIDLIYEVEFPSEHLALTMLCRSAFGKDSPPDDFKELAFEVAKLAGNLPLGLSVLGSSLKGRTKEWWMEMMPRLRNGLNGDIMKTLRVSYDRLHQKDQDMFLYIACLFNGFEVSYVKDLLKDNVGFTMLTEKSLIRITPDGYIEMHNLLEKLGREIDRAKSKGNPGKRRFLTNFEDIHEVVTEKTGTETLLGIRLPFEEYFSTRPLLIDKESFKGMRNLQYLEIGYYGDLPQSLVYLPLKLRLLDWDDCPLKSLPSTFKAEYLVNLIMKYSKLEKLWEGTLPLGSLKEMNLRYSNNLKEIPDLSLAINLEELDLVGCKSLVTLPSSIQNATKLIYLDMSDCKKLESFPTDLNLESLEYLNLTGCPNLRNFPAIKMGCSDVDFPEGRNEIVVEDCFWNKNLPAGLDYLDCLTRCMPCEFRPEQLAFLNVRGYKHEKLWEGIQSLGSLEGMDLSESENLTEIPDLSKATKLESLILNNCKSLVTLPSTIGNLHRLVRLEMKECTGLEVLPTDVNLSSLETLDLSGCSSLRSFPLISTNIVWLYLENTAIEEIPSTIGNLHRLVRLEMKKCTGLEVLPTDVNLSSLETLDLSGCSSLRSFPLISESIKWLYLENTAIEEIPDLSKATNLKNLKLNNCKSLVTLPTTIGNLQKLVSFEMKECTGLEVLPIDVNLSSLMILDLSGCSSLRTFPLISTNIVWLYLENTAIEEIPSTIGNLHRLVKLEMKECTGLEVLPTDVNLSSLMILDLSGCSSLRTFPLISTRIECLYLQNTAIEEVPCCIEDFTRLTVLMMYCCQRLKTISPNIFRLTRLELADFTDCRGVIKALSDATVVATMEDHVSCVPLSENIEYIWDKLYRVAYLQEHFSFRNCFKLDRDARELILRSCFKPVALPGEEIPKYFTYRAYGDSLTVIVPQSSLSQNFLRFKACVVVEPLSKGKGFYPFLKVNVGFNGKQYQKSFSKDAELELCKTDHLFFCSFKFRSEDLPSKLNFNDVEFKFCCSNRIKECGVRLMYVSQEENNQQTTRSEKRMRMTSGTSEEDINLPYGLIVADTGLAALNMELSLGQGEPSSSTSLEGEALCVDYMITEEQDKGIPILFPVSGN


Legend:
[1] = target: T1, SNC1-GFP (Arabidopsis thaliana); experiment: pull-down
[2] = target: ADR1-L2-FLAG (Arabidopsis thaliana); experiment: co-IP
[3] = target: ADR1-L1-GFP (Arabidopsis thaliana); experiment: co-IP
[4] = target: ADR1-L1-FLAG (Arabidopsis thaliana); experiment: co-IP

Row | binding [2] | binding [3] | binding [4] | Molecule | binding [1]
1 |  |  |  | MBP-tagged CCR domain of ADR1 (Arabidopsis thaliana) (domain or fragment) | binds
2 |  |  |  | MBP-tagged CCR domain of ADR1-L1 (Arabidopsis thaliana) (domain or fragment) | binds
3 |  |  |  | MBP-tagged CCR domain of ADR1-L2 (Arabidopsis thaliana) (domain or fragment) | binds
4 | binds | binds | binds | 3xHA-tagged SNC1 (natural protein, Arabidopsis thaliana, UniProt O23530 1-1437, looked up) MMDTSKDDDMEIASSSGSRRYDVFPSFRGEDVRDSFLSHLLKELRGKAITFIDDEIERSRSIGPELLSAIKESRIAIVIFSKNYASSTWCLNELVEIHKCYTNLNQMVIPIFFHVDASEVKKQTGEFGKVFEETCKAKSEDEKQSWKQALAAVAVMAGYDLRKWPSEAAMIEELAEDVLRKTMTPSDDFGDLVGIENHIEAIKSVLCLESKEARIMVGIWGQSGIGKSTIGRALYSKLSIQFHHRAFITYKSTSGSDVSGMKLRWEKELLSEILGQKDIKIEHFGVVEQRLKQQKVLILLDDVDSLEFLKTLVGKAEWFGSGSRIIVITQDRQLLKAHEIDLIYEVEFPSEHLALTMLCRSAFGKDSPPDDFKELAFEVAKLAGNLPLGLSVLGSSLKGRTKEWWMEMMPRLRNGLNGDIMKTLRVSYDRLHQKDQDMFLYIACLFNGFEVSYVKDLLKDNVGFTMLTEKSLIRITPDGYIEMHNLLEKLGREIDRAKSKGNPGKRRFLTNFEDIHEVVTEKTGTETLLGIRLPFEEYFSTRPLLIDKESFKGMRNLQYLEIGYYGDLPQSLVYLPLKLRLLDWDDCPLKSLPSTFKAEYLVNLIMKYSKLEKLWEGTLPLGSLKEMNLRYSNNLKEIPDLSLAINLEELDLVGCKSLVTLPSSIQNATKLIYLDMSDCKKLESFPTDLNLESLEYLNLTGCPNLRNFPAIKMGCSDVDFPEGRNEIVVEDCFWNKNLPAGLDYLDCLTRCMPCEFRPEQLAFLNVRGYKHEKLWEGIQSLGSLEGMDLSESENLTEIPDLSKATKLESLILNNCKSLVTLPSTIGNLHRLVRLEMKECTGLEVLPTDVNLSSLETLDLSGCSSLRSFPLISTNIVWLYLENTAIEEIPSTIGNLHRLVRLEMKKCTGLEVLPTDVNLSSLETLDLSGCSSLRSFPLISESIKWLYLENTAIEEIPDLSKATNLKNLKLNNCKSLVTLPTTIGNLQKLVSFEMKECTGLEVLPIDVNLSSLMILDLSGCSSLRTFPLISTNIVWLYLENTAIEEIPSTIGNLHRLVKLEMKECTGLEVLPTDVNLSSLMILDLSGCSSLRTFPLISTRIECLYLQNTAIEEVPCCIEDFTRLTVLMMYCCQRLKTISPNIFRLTRLELADFTDCRGVIKALSDATVVATMEDHVSCVPLSENIEYIWDKLYRVAYLQEHFSFRNCFKLDRDARELILRSCFKPVALPGEEIPKYFTYRAYGDSLTVIVPQSSLSQNFLRFKACVVVEPLSKGKGFYPFLKVNVGFNGKQYQKSFSKDAELELCKTDHLFFCSFKFRSEDLPSKLNFNDVEFKFCCSNRIKECGVRLMYVSQEENNQQTTRSEKRMRMTSGTSEEDINLPYGLIVADTGLAALNMELSLGQGEPSSSTSLEGEALCVDYMITEEQDKGIPILFPVSGN | 
